From the supplement of paper PMC10849652
The list shows a part of the results.

Amino acid sequences for entries named in this document (tags omitted). A change or cut given only in a name is not applied to a line headed by its entry.
UniProt Q8WWZ3: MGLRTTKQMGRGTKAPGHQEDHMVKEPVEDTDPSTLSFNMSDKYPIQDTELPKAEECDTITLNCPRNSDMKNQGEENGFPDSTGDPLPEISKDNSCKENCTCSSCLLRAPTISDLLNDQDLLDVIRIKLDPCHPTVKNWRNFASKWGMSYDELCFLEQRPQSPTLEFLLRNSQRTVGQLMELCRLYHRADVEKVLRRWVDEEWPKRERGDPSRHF
UniProt Q96FJ2, whole entry, looked up: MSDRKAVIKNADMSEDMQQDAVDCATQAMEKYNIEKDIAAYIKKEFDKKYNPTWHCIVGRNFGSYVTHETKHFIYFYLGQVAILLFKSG
UniProt Q9BZG8: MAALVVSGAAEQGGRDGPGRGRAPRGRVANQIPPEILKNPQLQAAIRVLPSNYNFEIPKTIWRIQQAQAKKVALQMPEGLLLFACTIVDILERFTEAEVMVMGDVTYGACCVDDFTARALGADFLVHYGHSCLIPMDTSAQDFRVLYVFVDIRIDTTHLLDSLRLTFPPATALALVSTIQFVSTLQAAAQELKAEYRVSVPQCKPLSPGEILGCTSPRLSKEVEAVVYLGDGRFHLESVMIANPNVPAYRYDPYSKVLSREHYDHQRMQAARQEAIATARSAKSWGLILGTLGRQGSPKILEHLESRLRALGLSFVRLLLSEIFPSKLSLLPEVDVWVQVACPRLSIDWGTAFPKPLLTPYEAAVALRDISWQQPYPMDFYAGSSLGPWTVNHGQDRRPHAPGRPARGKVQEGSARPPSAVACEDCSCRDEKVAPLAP
UniProt Q9BV94: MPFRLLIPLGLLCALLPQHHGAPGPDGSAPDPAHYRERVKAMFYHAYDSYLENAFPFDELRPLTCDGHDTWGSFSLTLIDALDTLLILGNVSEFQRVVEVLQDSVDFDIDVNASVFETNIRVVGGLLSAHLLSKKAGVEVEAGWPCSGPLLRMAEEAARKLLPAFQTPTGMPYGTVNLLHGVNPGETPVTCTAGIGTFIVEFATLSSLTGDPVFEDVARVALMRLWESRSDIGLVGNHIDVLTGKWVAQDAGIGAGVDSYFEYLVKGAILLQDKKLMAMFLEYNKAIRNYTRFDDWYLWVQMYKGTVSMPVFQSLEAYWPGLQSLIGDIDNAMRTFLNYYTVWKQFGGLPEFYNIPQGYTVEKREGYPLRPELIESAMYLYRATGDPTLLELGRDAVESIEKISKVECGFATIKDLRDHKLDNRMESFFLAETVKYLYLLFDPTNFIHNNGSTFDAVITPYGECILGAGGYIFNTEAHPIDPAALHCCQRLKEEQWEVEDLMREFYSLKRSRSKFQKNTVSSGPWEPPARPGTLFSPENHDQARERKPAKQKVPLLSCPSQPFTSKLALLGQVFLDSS
UniProt Q9BZ29: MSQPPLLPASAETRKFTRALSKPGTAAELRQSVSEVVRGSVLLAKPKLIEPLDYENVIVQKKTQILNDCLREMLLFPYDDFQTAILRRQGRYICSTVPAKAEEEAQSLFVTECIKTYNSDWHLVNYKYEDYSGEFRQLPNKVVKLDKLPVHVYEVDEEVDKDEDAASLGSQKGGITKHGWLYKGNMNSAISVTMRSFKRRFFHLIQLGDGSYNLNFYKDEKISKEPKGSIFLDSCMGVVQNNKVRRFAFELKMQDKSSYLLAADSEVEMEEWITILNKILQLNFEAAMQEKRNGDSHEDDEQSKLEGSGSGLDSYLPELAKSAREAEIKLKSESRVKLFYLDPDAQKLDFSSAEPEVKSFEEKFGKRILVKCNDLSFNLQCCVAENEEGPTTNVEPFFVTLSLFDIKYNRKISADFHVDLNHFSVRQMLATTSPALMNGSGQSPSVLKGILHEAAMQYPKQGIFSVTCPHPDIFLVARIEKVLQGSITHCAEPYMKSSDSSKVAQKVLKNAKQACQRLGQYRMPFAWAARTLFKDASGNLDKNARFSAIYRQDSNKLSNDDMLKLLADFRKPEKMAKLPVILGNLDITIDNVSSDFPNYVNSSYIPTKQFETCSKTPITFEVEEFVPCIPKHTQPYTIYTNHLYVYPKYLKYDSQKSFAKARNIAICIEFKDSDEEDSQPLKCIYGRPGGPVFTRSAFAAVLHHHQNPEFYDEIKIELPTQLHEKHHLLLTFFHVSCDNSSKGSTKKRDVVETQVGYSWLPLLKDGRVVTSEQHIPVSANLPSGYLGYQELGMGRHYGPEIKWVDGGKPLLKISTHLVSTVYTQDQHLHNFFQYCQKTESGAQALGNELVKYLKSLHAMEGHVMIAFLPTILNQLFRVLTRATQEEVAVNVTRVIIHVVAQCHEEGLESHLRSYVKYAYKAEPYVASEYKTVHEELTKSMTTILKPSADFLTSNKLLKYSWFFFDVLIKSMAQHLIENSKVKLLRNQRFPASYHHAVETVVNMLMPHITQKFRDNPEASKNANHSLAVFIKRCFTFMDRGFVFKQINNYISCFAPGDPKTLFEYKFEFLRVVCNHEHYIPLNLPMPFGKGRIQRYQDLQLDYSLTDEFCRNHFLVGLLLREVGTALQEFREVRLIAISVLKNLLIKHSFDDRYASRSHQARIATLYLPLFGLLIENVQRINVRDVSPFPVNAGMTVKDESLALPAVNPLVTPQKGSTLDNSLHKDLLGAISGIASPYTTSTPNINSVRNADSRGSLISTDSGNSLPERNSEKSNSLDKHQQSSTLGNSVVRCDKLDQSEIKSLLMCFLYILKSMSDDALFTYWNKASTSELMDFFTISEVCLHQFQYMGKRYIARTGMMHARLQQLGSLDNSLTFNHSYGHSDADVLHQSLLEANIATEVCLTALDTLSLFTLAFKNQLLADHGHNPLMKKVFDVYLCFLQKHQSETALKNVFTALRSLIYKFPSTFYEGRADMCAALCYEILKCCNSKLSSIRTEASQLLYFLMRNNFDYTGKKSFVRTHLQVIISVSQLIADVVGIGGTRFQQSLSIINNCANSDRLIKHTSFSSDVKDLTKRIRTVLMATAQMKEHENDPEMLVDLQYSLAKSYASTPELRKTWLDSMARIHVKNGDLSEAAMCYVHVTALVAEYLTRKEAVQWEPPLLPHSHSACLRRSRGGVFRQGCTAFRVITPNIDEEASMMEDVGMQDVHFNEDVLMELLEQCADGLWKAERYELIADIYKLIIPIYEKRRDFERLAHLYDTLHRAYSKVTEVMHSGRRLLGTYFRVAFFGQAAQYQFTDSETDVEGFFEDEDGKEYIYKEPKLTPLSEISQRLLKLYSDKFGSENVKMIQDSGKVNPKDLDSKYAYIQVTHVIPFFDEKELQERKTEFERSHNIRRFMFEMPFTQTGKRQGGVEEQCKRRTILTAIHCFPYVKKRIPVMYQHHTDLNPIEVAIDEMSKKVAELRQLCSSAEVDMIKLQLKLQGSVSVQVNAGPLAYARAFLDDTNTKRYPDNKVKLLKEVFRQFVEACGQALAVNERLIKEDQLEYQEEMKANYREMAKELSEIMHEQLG
UniProt Q8WXX5: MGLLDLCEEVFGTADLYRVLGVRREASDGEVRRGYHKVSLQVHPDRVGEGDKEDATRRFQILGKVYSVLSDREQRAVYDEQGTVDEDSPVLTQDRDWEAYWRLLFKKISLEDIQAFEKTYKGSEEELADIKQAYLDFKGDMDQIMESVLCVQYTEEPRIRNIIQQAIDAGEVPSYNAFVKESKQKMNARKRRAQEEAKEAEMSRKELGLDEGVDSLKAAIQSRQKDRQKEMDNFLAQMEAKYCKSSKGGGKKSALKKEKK
UniProt Q9BZQ6: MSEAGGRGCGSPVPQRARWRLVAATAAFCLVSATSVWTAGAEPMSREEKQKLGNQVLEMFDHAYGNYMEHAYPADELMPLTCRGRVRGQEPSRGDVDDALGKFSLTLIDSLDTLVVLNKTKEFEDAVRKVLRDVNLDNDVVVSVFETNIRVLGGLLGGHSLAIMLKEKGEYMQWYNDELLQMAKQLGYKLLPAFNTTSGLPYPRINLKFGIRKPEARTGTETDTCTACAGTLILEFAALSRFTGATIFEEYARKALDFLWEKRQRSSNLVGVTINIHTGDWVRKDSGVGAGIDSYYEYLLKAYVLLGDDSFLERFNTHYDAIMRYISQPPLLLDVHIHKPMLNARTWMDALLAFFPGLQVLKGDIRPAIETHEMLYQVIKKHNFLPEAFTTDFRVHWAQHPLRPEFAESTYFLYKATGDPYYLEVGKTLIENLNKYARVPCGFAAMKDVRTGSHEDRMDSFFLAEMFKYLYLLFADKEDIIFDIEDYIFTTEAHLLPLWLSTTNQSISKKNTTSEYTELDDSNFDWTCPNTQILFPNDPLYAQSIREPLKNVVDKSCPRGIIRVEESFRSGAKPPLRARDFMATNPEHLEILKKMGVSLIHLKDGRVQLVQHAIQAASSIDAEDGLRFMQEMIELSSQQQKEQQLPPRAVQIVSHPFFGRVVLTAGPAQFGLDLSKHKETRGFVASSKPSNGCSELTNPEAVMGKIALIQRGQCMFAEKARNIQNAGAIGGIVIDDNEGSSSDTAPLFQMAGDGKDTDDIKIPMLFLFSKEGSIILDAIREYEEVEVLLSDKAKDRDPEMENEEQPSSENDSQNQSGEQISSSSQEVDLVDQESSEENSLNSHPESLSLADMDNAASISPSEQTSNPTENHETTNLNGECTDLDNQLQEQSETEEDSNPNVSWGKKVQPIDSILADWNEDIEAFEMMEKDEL
UniProt Q6ZPD9: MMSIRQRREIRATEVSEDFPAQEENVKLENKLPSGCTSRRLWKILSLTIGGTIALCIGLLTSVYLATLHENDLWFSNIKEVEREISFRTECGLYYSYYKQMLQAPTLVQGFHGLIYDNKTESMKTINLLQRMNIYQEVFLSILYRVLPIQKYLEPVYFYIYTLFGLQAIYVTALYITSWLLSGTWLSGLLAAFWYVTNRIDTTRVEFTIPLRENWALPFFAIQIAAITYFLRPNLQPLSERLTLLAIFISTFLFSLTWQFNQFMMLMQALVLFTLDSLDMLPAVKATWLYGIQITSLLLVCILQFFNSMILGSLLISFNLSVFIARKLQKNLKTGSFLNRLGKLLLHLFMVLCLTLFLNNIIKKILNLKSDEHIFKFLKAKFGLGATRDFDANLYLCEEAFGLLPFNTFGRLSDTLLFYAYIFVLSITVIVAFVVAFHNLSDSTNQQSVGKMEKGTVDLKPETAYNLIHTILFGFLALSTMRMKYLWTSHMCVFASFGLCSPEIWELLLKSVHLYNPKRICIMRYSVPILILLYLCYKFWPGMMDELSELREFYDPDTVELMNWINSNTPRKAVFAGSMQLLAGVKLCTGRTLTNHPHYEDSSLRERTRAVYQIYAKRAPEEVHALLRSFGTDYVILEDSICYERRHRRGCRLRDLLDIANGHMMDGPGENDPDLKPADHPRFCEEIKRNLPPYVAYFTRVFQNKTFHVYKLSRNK
UniProt Q9C005, whole entry, looked up: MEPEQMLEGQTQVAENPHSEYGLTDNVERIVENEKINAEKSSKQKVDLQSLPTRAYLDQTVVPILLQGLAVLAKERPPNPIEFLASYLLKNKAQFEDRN
UniProt Q9NTX5: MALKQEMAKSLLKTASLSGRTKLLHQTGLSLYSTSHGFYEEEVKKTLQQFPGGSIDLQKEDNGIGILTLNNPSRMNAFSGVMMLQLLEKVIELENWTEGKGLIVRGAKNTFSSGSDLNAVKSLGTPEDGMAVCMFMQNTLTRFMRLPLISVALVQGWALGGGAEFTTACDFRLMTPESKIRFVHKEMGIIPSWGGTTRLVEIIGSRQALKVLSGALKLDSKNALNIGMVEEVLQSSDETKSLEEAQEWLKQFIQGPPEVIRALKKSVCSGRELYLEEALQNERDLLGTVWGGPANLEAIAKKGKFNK
UniProt O43237, whole entry, looked up: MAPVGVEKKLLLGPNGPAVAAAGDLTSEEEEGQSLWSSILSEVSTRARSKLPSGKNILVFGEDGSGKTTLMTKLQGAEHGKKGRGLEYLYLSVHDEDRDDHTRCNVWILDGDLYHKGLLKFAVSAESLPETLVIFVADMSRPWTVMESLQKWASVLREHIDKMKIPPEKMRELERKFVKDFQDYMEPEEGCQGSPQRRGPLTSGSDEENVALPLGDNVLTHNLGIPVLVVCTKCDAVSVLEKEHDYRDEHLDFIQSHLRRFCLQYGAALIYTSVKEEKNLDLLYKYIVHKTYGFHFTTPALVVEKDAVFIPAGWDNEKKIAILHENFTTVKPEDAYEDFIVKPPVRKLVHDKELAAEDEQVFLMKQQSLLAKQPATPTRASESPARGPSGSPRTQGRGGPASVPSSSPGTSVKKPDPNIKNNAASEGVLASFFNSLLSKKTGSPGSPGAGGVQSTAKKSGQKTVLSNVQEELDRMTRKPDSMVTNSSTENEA
UniProt Q8TBM8: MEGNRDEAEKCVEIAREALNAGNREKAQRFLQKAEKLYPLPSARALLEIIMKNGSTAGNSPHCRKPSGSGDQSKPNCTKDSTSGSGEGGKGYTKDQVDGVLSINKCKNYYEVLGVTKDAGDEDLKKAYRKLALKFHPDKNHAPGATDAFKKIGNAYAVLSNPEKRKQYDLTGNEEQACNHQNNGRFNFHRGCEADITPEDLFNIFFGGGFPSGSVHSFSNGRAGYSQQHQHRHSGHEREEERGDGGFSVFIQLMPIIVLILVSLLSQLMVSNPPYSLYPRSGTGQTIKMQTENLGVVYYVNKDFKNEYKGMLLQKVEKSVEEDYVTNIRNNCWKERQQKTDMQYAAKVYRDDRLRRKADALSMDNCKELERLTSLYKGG

Experiments:
Experiment in all cases: log2 fold change, soluble protein after heating vs DMSO (PISA); higher = thermal stabilisation; K562 cells, 10 uM, 30 min; active = over 0.2 and 3.5 SD of the protein, either way, in both replicates (recomputed)
[1] = compound: COC1=CC=C(C=C1)CN2C=CC3=C2C=C(C=C3)C(=O)NO
In short: (§1)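 K562 cells at 2×10^6 cells/mL were treated with 10 μM compound for 30 min. Aliquots were heated for 3 min across 48°C-58°C, pooled, and extracted in PBS with 0.5% NP-40 at 4°C; soluble protein was the supernatant after 21,000xg for 90 min. Soluble protein was quantified by TMTpro 16plex LC-MS/MS with channel sums equalised, and reported as log2 fold change in thermal stability against DMSO controls, with values from duplicates.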

filanesib = compound: CON(C)C(=O)N1N=C(c2cc(F)ccc2F)S[C@@]1(CCCN)c1ccccc1 [filanesib]
In short: as §1

zotarolimus = compound: CO[C@H]1C[C@@H]2CC[C@@H](C)[C@@](O)(O2)C(=O)C(=O)N2CCCC[C@H]2C(=O)O[C@H]([C@H](C)C[C@@H]2CC[C@H](n3cnnn3)[C@H](OC)C2)CC(=O)[C@H](C)/C=C(\C)[C@@H](O)[C@@H](OC)C(=O)[C@H](C)C[C@H](C)/C=C/C=C/C=C/1C [zotarolimus]
In short: as §1

idasanutlin = compound: COc1cc(C(=O)O)ccc1NC(=O)[C@@H]1N[C@@H](CC(C)(C)C)[C@](C#N)(c2ccc(Cl)cc2F)[C@H]1c1cccc(Cl)c1F [idasanutlin]
In short: as §1

alisertib = compound: COc1cc(Nc2ncc3c(n2)-c2ccc(Cl)cc2C(c2c(F)cccc2OC)=NC3)ccc1C(=O)O [alisertib]
In short: as §1

[2] = compound: COc1cc2nc(-c3cc(F)ccc3O)nc(N[C@@H]3CNC[C@H]3C(C)(C)O)c2cc1OC
In short: as §1

gefitinib = compound: COc1cc2ncnc(Nc3ccc(F)c(Cl)c3)c2cc1OCCCN1CCOCC1 [gefitinib]
In short: as §1

[3] = compound: COc1cccc2cc(-c3nc([C@H]4CC[C@H](C(=O)O)CC4)n4ncnc(N)c34)[nH]c12
In short: as §1

lapatinib = compound: CS(=O)(=O)CCNCc1ccc(-c2ccc3ncnc(Nc4ccc(OCc5cccc(F)c5)c(Cl)c4)c3c2)o1 [lapatinib]
In short: as §1

pictilisib = compound: CS(=O)(=O)N1CCN(Cc2cc3nc(-c4cccc5[nH]ncc45)nc(N4CCOCC4)c3s2)CC1 [pictilisib]
In short: as §1

Measured: log2 fold change

EDARADD (UniProt Q8WWZ3)
inactive: [1] -0.146 | filanesib 0.003 | zotarolimus 0.019 | idasanutlin 0.022 | alisertib -0.006 | [2] 0.063 | gefitinib 0.02 | [3] 0 | lapatinib -0.05 | pictilisib 0.085

DYNLL2 (UniProt Q96FJ2)
inactive: [1] 0.118 | filanesib -0.07 | zotarolimus 0.076 | idasanutlin 0.017 | alisertib 0.003 | [2] 0.057 | gefitinib 0.047 | [3] -0.02 | lapatinib 0.045 | pictilisib -0.055

ECSIT (UniProt Q9BQ95)
inactive: [1] 0.018 | filanesib -0.007 | zotarolimus -0.061 | idasanutlin 0.01 | alisertib -0.016 | [2] 0.029 | gefitinib 0.007 | [3] 0.075 | lapatinib -0.015 | pictilisib -0.035

EDF1 (UniProt O60869)
inactive: [1] 0.041 | filanesib -0.022 | zotarolimus -0.056 | idasanutlin -0.018 | alisertib -0.02 | [2] 0.028 | gefitinib -0.003 | [3] 0.029 | lapatinib -0.08 | pictilisib 0.002

DPH1 (UniProt Q9BZG8)
inactive: [1] -0.037 | filanesib -0.004 | zotarolimus -0.083 | idasanutlin -0.029 | alisertib -0.059 | [2] -0.013 | gefitinib -0.043 | [3] -0.152 | lapatinib 0.033 | pictilisib -0.166

DSC2 (UniProt Q02487)
inactive: [1] -0.051 | filanesib 0.073 | zotarolimus -0.083 | idasanutlin 0.134 | alisertib 0.029 | [2] 0.142 | gefitinib -0.016 | [3] -0.005 | lapatinib 0.05 | pictilisib -0.031

EDEM2 (UniProt Q9BV94)
inactive: [1] -0.149 | filanesib -0.03 | zotarolimus 0.022 | idasanutlin -0.154 | [2] 0.028 | gefitinib 0.033 | [3] 0.205 | lapatinib -0.064 | pictilisib 0.09
active: alisertib -0.441

DOCK9 isoform 4 (UniProt Q9BZ29)
inactive: [1] -0.01 | filanesib -0.106 | zotarolimus -0.032 | idasanutlin -0.016 | alisertib -0.075 | [2] 0.121 | gefitinib 0.008 | [3] 0.034 | lapatinib -0.015 | pictilisib 0.061

DUSP3 (UniProt P51452)
inactive: [1] -0.059 | filanesib 0.016 | zotarolimus 0.023 | idasanutlin 0.012 | alisertib 0.016 | [2] 0.066 | gefitinib 0.097 | [3] -0.029 | lapatinib -0.024 | pictilisib 0.136

DNAJC9 (UniProt Q8WXX5)
inactive: [1] 0.001 | filanesib -0.029 | zotarolimus 0 | idasanutlin -0.014 | alisertib -0.031 | [2] 0.049 | gefitinib 0.01 | [3] 0 | lapatinib -0.047 | pictilisib 0.014

DUT (UniProt P33316)
inactive: [1] 0.005 | filanesib -0.054 | zotarolimus -0.027 | idasanutlin -0.039 | alisertib -0.129 | [2] 0.072 | gefitinib -0.023 | [3] 0.068 | lapatinib -0.024 | pictilisib 0.053

DPP7 (UniProt Q9UHL4)
inactive: [1] 0.063 | filanesib 0.008 | zotarolimus -0.016 | idasanutlin -0.045 | alisertib -0.05 | [2] -0.025 | gefitinib 0.033 | [3] 0.022 | lapatinib 0.003 | pictilisib 0.056

E2F4 (UniProt Q16254)
inactive: [1] -0.024 | filanesib -0.034 | zotarolimus 0.042 | idasanutlin 0.006 | alisertib -0.056 | [2] -0.098 | gefitinib 0.003 | [3] 0.059 | lapatinib 0.047 | pictilisib 0.044

DNAJC2 (UniProt Q99543)
inactive: [1] -0.002 | filanesib 0.109 | zotarolimus 0.002 | idasanutlin 0.099 | alisertib -0.035 | [2] 0.129 | gefitinib 0.006 | [3] -0.278 | lapatinib -0.025 | pictilisib -0.068

EDC4 (UniProt Q6P2E9)
inactive: [1] 0.018 | filanesib 0.106 | zotarolimus 0.001 | idasanutlin 0.044 | alisertib -0.028 | [2] 0.062 | gefitinib -0.004 | [3] 0 | lapatinib 0.007 | pictilisib 0.006

DNPEP (UniProt Q9ULA0)
inactive: [1] 0.115 | filanesib -0.069 | zotarolimus -0.029 | idasanutlin -0.03 | alisertib -0.081 | [2] -0.007 | gefitinib -0.022 | [3] 0.037 | lapatinib -0.026 | pictilisib -0.006

DNTTIP2 (UniProt Q5QJE6)
inactive: [1] -0.095 | filanesib 0.217 | zotarolimus 0.061 | idasanutlin 0.267 | alisertib -0.072 | [2] -0.09 | gefitinib -0.014 | [3] -0.002 | lapatinib 0 | pictilisib 0.008

EDEM3 (UniProt Q9BZQ6)
inactive: [1] -0.031 | filanesib 0.067 | zotarolimus 0.018 | idasanutlin 0.018 | alisertib -0.016 | [2] 0.02 | gefitinib -0.041 | [3] -0.026 | lapatinib 0.053 | pictilisib -0.036

DPY19L3 (UniProt Q6ZPD9)
inactive: [1] -0.053 | filanesib 0.057 | zotarolimus -0.023 | idasanutlin -0.009 | alisertib 0.423 | [2] -0.052 | gefitinib 0.084 | [3] -0.042 | lapatinib 0.136 | pictilisib 0.016

DNAJC6 isoform 2 (UniProt O75061)
inactive: [1] 0.022 | filanesib 0.063 | zotarolimus -0.023 | idasanutlin -0.028 | alisertib -0.05 | [2] 0.053 | gefitinib 0.006 | [3] 0.027 | lapatinib 0.043 | pictilisib 0.087

DPY30 (UniProt Q9C005)
inactive: [1] 0.532 | filanesib 0.326 | zotarolimus 0.087 | idasanutlin 0.141 | alisertib -0.409 | [2] -0.241 | gefitinib 0.027 | [3] 0.07 | lapatinib -0.027 | pictilisib -0.038

ECHDC1 (UniProt Q9NTX5)
inactive: [1] -0.021 | filanesib -0.014 | zotarolimus -0.045 | idasanutlin -0.02 | alisertib 0.05 | [2] 0.023 | gefitinib 0.021 | [3] 0.055 | lapatinib -0.01 | pictilisib -0.011

EAF1 (UniProt Q96JC9)
inactive: [1] 0.005 | filanesib -0.013 | zotarolimus -0.008 | idasanutlin 0.005 | alisertib -0.091 | [2] 0.034 | gefitinib 0.037 | [3] -0.017 | lapatinib -0.074 | pictilisib -0.049

DYNC1LI2 (UniProt O43237)
inactive: [1] -0.19 | filanesib 0.384 | zotarolimus 0.005 | idasanutlin 0.092 | alisertib -0.053 | [2] 0.101 | gefitinib -0.099 | [3] -0.119 | lapatinib 0.116 | pictilisib -0.223

2 records picked at random from those above, as already listed:
DNPEP (UniProt Q9ULA0)
inactive: [1] 0.115 | filanesib -0.069 | zotarolimus -0.029 | idasanutlin -0.03 | alisertib -0.081 | [2] -0.007 | gefitinib -0.022 | [3] 0.037 | lapatinib -0.026 | pictilisib -0.006

ECHDC1 (UniProt Q9NTX5)
inactive: [1] -0.021 | filanesib -0.014 | zotarolimus -0.045 | idasanutlin -0.02 | alisertib 0.05 | [2] 0.023 | gefitinib 0.021 | [3] 0.055 | lapatinib -0.01 | pictilisib -0.011

(listing goes on)

DNAJA3 (UniProt Q96EY1)
inactive: [1] 0.015 | filanesib -0.018 | zotarolimus 0.05 | idasanutlin 0.058 | alisertib -0.018 | [2] -0.008 | gefitinib -0.046 | [3] 0.01 | lapatinib 0.003 | pictilisib -0.006

DPH3 (UniProt Q96FX2)
inactive: [1] 0.217 | filanesib 0.095 | zotarolimus -0.046 | idasanutlin -0.124 | alisertib -0.033 | [2] -0.151 | gefitinib -0.052 | [3] -0.044 | lapatinib -0.088 | pictilisib -0.144

DNAJB14 (UniProt Q8TBM8)
inactive: [1] -0.056 | filanesib 0.014 | zotarolimus 0.046 | idasanutlin 0.08 | alisertib 0.117 | [2] -0.08 | gefitinib 0.125 | [3] 0.304 | lapatinib 0.014 | pictilisib 0.084
